The assay in a line: qHTS Assay for Modulators of Lamin A Splicing. The note with it: HeLa LMNA splicing GFP/RFP minigene ratio, 48 h. The method, boiled down: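 S3 HeLa stable clones carrying a lamin A-EGFP splicing minigene plus DsRed2 were seeded at 600 cells/well in Opti-MEM with 2% FBS, pin-dosed and incubated 48 h at 37°C. Acumen cytometry (488 nm) gave the GFP/RFP total-intensity ratio.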
For orientation: qHTS replaces the single test concentration by a dilution series.

Setting [1] is: measured here: GFP splicing reporter channel.
Where [2] appears, read: measured here: RFP viability control channel.

Broadly, the AC50 is the concentration giving half of the maximal activity seen.

The list shows a part of the results. The main result of the screen is listed elsewhere. These columns were measured beside it and carry no call. Most of these compounds were active or inconclusive in the main read-out, so they are no random draw. The note in brackets gives the kind of curve behind each potency; many fits are weak.

Consider `CN1CCN(c2ncc3nc(-c4ccccc4)c(=O)n(CCc4ccccc4)c3n2)CC1`, for which the AC50 was 20 µM [falling, partial curve, poor fit] under setting [1] and 22.4 µM [falling, partial curve] under setting [2]. `COc1ccc(CNC(C)C2COc3ccccc3O2)c(OC)c1` (stereo unspecified): the AC50 is 14.1 µM [rising, single point] under setting [1] and 12.6 µM [rising, single point] under setting [2].

In the case of `O=S(=O)(Nc1cccc(-c2cn3cccnc3n2)c1)c1ccc(Cl)cc1`, the AC50 under setting [2] is 17.8 µM [rising, single point]. Same read-out and setting: with `CCOc1ccc(-c2ccc(/C=C3/C(=N)N4C(C)=CSC4=NC3=O)o2)c([N+](=O)[O-])c1` the figure was 15.8 µM [rising, single point]; with `O=C(NCC1COc2ccccc2O1)C1C2C=CC3(CN(Cc4ccccc4Cl)C(=O)C13)O2` (stereo unspecified), 14.1 µM [rising, single point]. For `O=C(c1cc2ccccc2oc1=O)N(Cc1ccc2c(c1)OCO2)Cc1ccco1`, the AC50 is 14.1 µM [rising, single point] under setting [1] and 12.6 µM [rising, single point] under setting [2]. With `Cc1n[nH]c(C)c1CCc1nc2c3ccccc3nc(SCC(N)=O)n2n1`, the AC50 under setting [2] is 12.6 µM [rising, single point]. Same read-out and setting: with `CCOCCCNC(=O)c1ccc(-n2c(-c3ccccc3)cc3c2CCC(C)C3)cc1` (stereo unspecified) the figure was 35.5 µM [falling, single point].

In the case of `COc1ccc(-c2csc3ncnc(Nc4cccc(OC)c4)c23)cc1`, under setting [1], the AC50 is 0.708 µM [falling, full curve]. As to `O=C(NCC(c1cccs1)N1CCOCC1)c1ccccc1NS(=O)(=O)c1ccc(Cl)c([N+](=O)[O-])c1` (stereo unspecified), the AC50 under setting [2] is 11.2 µM [rising, partial curve]. As to `CCOC(=O)CSc1ccccn1`, the AC50 is 4.47 µM [rising, partial curve, poor fit] under setting [1] and 0.355 µM [rising, partial curve, poor fit] under setting [2].

With `Cc1ccc(NC(=O)c2ccccc2O)cc1`, the AC50 under setting [2] is 28.2 µM [rising, single point]. The same measure, in the same setting: with `COc1ccc(Nc2oc(COc3ccc(OC)cc3)nc2C#N)cc1` the figure was 31.6 µM [rising, single point].

Turning to `COC(=O)c1cc(Cl)c(NC(=O)c2ccc(C(C)(C)C)cc2)cc1OC`, under setting [2], the AC50 is 28.2 µM [rising, partial curve]. Turning to `CC(=O)N1CCCc2cc(S(=O)(=O)N3CCCC(C(=O)N4CCN(c5ccccc5)CC4)C3)ccc21` (stereo unspecified), under setting [1], the AC50 is 0.158 µM [rising, full curve, poor fit]. For the molecule `COc1ccc(N2CCN(C(=O)/C=C/c3ccco3)CC2)cc1`, the AC50 under setting [1] was 4.47 µM [falling, partial curve, poor fit]. Regarding `Cc1ccc(-n2ncc3c(Nc4cccc(C(=O)O)c4)ncnc32)cc1`, the AC50 under setting [1] is 2 µM [falling, partial curve] and the AC50 under setting [2] is 35.5 µM [falling, partial curve, poor fit].

As for `CCc1ccccc1NS(=O)(=O)c1ccc2[nH]cc(C(=O)N(CC)Cc3ccccc3)c(=O)c2c1`, the AC50 under setting [2] was 11.2 µM [falling, partial curve, poor fit]. As for `O=C(Nc1nc2c(F)cc(F)cc2s1)c1ccccn1`, under setting [2], the AC50 is 12.6 µM [rising, partial curve]. Same read-out and setting: the result for `Cc1cc(C)nc(Sc2ncnc3sc4c(c23)CCC4)n1` reads 17.8 µM [rising, partial curve]. As for `CCCCCCCn1c(=N)n(CC(O)c2ccco2)c2ccccc21` (stereo unspecified), under setting [1], the AC50 was 31.6 µM [falling, single point]. With `CC1CC(C)CN(C(=O)CSc2ccsc2[N+](=O)[O-])C1` (stereo unspecified), the AC50 under setting [1] was 0.0158 µM [rising, full curve, poor fit].

In the case of `COc1[nH]c2ccc(F)cc2c1C(=O)OCC1CCN(CCNS(C)(=O)=O)CC1`, the AC50 is, setting by setting: under setting [1], 5.62 µM [falling, partial curve, poor fit]; under setting [2], 6.31 µM [falling, single point]. Turning to `CCC(C(=O)N1CCN(c2cccc(Cl)c2)CC1)c1ccccc1` (stereo unspecified), the AC50 under setting [2] is 35.5 µM [rising, single point]. Regarding `CC(=O)OCCn1c2nc(=O)[nH]c(=O)c-2nc2cc(C)c(C)cc21`, the AC50 by setting is: under setting [1], 35.5 µM [falling, single point]; under setting [2], 1.78 µM [rising, single point]. With `COc1ccc(S(=O)(=O)CCC(=O)N(C)c2ccc(OC)cc2OC)cc1`, the AC50 under setting [2] was 0.447 µM [rising, partial curve]. For the molecule `Cc1ccsc1C=Nc1ccc(O)cc1`, the AC50 under setting [1] is 22.4 µM [falling, partial curve] and the concentration at half-maximal activity (AC50) under setting [2] is 12.6 µM [falling, partial curve, poor fit].

As for `CCCCOCCCNC(=O)c1ccc([N+](=O)[O-])c(C)c1`, the AC50 is 35.5 µM [rising, single point] under setting [1] and 35.5 µM [rising, single point] under setting [2]. For the molecule `COc1ccccc1-c1nnc(NC(=O)c2ccc(S(=O)(=O)N(C)C)cc2)o1`, under setting [2], the half-maximal activity concentration (AC50) was 28.2 µM [rising, partial curve, poor fit]. As for `CCOc1ccc(C2=CS/C(=C(\C#N)c3nnc4n3CCCCC4)N2CC)cc1`, the AC50 under setting [2] is 12.6 µM [rising, single point]. With `CCc1ccc(OCCOCC(O)CNC(C)(C)C)cc1` (stereo unspecified), the AC50 under setting [1] was 35.5 µM [rising, single point].

On to `CN(C)S(=O)(=O)c1ccc(Cl)c(NC(=O)CSc2nc3c(cc2C#N)C(=O)CCC3)c1`, for which the AC50 is 6.31 µM [rising, partial curve] under setting [1] and 10 µM [rising, partial curve] under setting [2]. For `Cc1ccc(C(=O)NC(=S)N2CCN(C(=O)OC(C)(C)C)CC2)cc1Br`, the AC50 is, setting by setting: under setting [1], 3.55 µM [rising, full curve, poor fit]; under setting [2], 3.98 µM [rising, full curve, poor fit]. As for `O=C(CSc1nnc(-c2ccc(S(=O)(=O)N3CCCC3)cc2)o1)NCc1ccccc1`, the AC50 under setting [2] is 11.2 µM [rising, single point].

With `O=S(=O)(c1cccs1)N1CCN(S(=O)(=O)c2cccs2)CC1`, the AC50 under setting [1] is 5.62 µM [rising, partial curve]. `Cc1cc(C)c(NC(=O)c2nc3ccccc3nc2N2CCCCC2)c(C)c1`: the AC50 under setting [2] was 0.01 µM [falling, full curve, poor fit].

Regarding `Nc1ccc(-c2ccc3ccccc3n2)cc1`, the AC50 under setting [1] was 5.62 µM [falling, partial curve, poor fit].

Regarding `CCCCNC(=O)C1CCC(Cn2c(=O)c3sccc3n(Cc3ccccc3)c2=O)CC1` (stereo unspecified), under setting [2], the AC50 was 0.0112 µM [falling, full curve, poor fit]. As to `COc1cc(/C=C(\C#N)c2nc3ccccc3[nH]2)ccc1Oc1ccc([N+](=O)[O-])cn1`, the AC50 under setting [1] was 12.6 µM [falling, partial curve] and the AC50 under setting [2] is 17.8 µM [falling, single point].

As for `CC1CCN(S(=O)(=O)c2ccc(NC(=O)c3cccs3)cc2)CC1`, the AC50 was 14.1 µM [rising, partial curve] under setting [1] and 22.4 µM [rising, partial curve] under setting [2]. For `CCc1ccc2oc(=O)cc(CN3CCN(c4ccc(F)cc4)CC3)c2c1`, the AC50 reads like this: under setting [1], 11.2 µM [rising, partial curve, poor fit]; under setting [2], 20 µM [rising, single point]. Consider `COc1cc(NC(=O)C2CCN(C(=O)c3sc4nc[nH]c(=O)c4c3C)CC2)cc(OC)c1OC`, for which the AC50 under setting [1] is 0.0224 µM [rising, full curve, poor fit]. With `CCOC(=O)C(CC)n1cnc2c(cnn2-c2ccc(Cl)cc2)c1=O` (stereo unspecified), the AC50 is, setting by setting: under setting [1], 4.47 µM [rising, partial curve, poor fit]; under setting [2], 12.6 µM [rising, partial curve, poor fit]. Turning to `CCCCNC(=O)CSc1nc2cc3c(cc2c(=O)n1CCCC(=O)NCCc1ccc(OC)c(OC)c1)OCO3`, the AC50 under setting [2] is 1 µM [falling, partial curve]. On to `COc1ccc2c(c1)SC1=NCCS(=O)(=O)N12`, for which the AC50 under setting [1] was 1.26 µM [rising, full curve, poor fit]. For `COC(=O)C(CCCN1C(=O)c2ccccc2C1=O)(NC(C)=O)c1nn[nH]n1` (stereo unspecified), the AC50 under setting [2] was 0.0708 µM [falling, full curve]. Take `O=c1c2c(nc(NCCO)n1CC1CCCCC1)-c1ccccc1CC21CCCC1`: the AC50 by setting is: under setting [1], 22.4 µM [falling, single point]; under setting [2], 22.4 µM [falling, single point]. As to `O=C(/C=C1\NC2(CCCC2)Cc2ccccc21)C(=O)N/N=C/c1ccc(O)c(O)c1`, the AC50 under setting [1] is 35.5 µM [falling, single point]. For the molecule `O=C(NC1CCCCC1)c1ccc(S(=O)(=O)c2ccccc2Cl)c([N+](=O)[O-])c1`, the AC50 by setting is: under setting [1], 35.5 µM [falling, single point]; under setting [2], 35.5 µM [falling, single point]. `COc1ccc(C(=O)Nc2ccc(C(F)(F)F)n(C)c2=O)cc1`: the AC50 under setting [2] is 1.58 µM [rising, full curve, poor fit]. On to `NC(=S)NN=C(Cc1ccccc1)Cc1ccccc1`, for which the AC50 under setting [1] is 35.5 µM [falling, partial curve, poor fit] and the AC50 under setting [2] is 35.5 µM [falling, partial curve].

With `Nc1nc(Cl)cc(Sc2ccc3ccccc3c2)n1`, the AC50 under setting [1] is 35.5 µM [falling, single point] and the AC50 under setting [2] was 35.5 µM [falling, single point].

As to `O=c1c2ccccc2c(C=NCCCN2CCOCC2)c(O)n1Cc1ccccc1`, the AC50 under setting [1] is 15.8 µM [rising, single point] and the AC50 under setting [2] is 35.5 µM [rising, single point]. `O=C(Nc1nc2ccccc2[nH]1)C12CC3CC(CC(C3)C1)C2`: the AC50 under setting [2] is 35.5 µM [rising, single point]. As for `CCC(CC)C(=O)N(CCc1ccc(OC)cc1)Cc1nc2ccccc2c(=O)[nH]1`, the AC50 was 22.4 µM [rising, single point] under setting [1] and 35.5 µM [rising, single point] under setting [2].
